The record followed here is PubChem BioAssay AID686971 (National Center for Advancing Translational Sciences (NCATS), 2013).

Each structure is given as a SMILES string. The entries are a selection whose mix differs from that of the whole data set. Inconclusive results are not listed. Activity calls are given as the source filed them. Calls follow the shape of the dose curve; as a rule, active = well fitted cell-killing curve with a large enough effect; inconclusive = small, poorly fitted or top-dose-only effect, or effect the other way, or another doubt; inactive = no such curve, though single readings can be large or run the other way.
Potency is read from the fitted curve at half-maximal effect.

The test is described as follows: qHTS for induction of synthetic lethality in tumor cells producing 2HG: qHTS for the HT-1080-IDH1KD cell line. The following applies: HT-1080 IDH1 knockdown viability, ATP luminescence, 48 h. The source says:
Unbiased genomic sequencing for 22 glioma genomes found recurrent mutation of IDH1 on chromosome 2q33, a gene encoding the cytosolic isoform of IIDH1 associated with the tri-carboxylic acid cycle (TCA) that catalyzes the oxidative decarboxylation of isocitrate, yielding alpha-ketoglutarate and CO2 via NADP+ to NADPH conversion. Subsequent studies confirmed the recurrent IDH mutations in up to 70% of secondary gliomas and in 10% of AML cases. […]
Suspensions of trypsinized HT-1080-IDH1KD cells were dispensed into white, tissue culture-treated, solid 1536-well plates at 5uL/well (750 cells/well final concentration) in RPMI medium supplemented with 5% FBS. […] The plates were measured on a PerkinElmer ViewLux plate reader for luminescent signal (clear filter, 1 sec exp.). […]
Concentration-response curves were fitted to the signals arising from the resulting luminescence. The concentration-effect curves were then classified based on curve quality (r2), response magnitude and degree of measured activity, and compounds were subsequently categorized based on their curve class.
(Quantitative high-throughput screening tests each substance at several concentrations.)
Consider `CCOC(=O)NC1CCc2cc(OC)c(OC)c(OC)c2-c2ccc(OC)c(=O)cc21` (stereo unspecified), for which the Potency is active: 8.2 nM.
